Reference: patent publication US12129475B2, “Glycoalkaloid metabolism enyzymes (GAMES) and uses thereof” (priority 2017, dated 2024)

Assays:
[1] = system: GAME25-Ox transgenic tomato lines; test: SGA levels by LC-MS in GAME25 over-expressing (GAME25-Ox) tomato lines compared to wild-type; assay type: in vivo, Solanum lycopersicum
[2] = system: GAME25-Ox eggplant (cv. Tudela); test: SGA and steroidal saponin profile of eggplant overexpressing tomato GAME25; assay type: in vivo, Solanum melongena; conditions: lines #E1, #E2

Substance	change in level in GAME25-Ox eggplant leaves compared to wild type [2]	other results
acetoxy-hydroxytomatine		change in level compared to wild-type green fruits ([1]; GAME25-Ox tomato green fruits): significant increase
malonyl-solamargine	reduction	
saturated malonyl-solamargine [saturated form of malonyl-solamargine]	major accumulation	
soladulcine A	major accumulation	
α-tomatine isomer 2 [α-tomatine (isomer 2)]		change in level compared to wild-type leaves ([1]; GAME25-Ox tomato leaves, lines #91, #92, #93): increased significantly
β-soladulcine	major accumulation	
